Assay results as given in article PMC4358236 (The Journal of Biological Chemistry, 2015).
No constants are given. Whether binding was seen depends on the method and setting. In cells and extracts the contact can be indirect. Some binding calls cover weakened binding; strength is not graded here. Where a sequence is shown, tags or fusion partners need not be part of it.

Chains of the proteins cited; added tags and fusions are not shown.
UniProt Q85295: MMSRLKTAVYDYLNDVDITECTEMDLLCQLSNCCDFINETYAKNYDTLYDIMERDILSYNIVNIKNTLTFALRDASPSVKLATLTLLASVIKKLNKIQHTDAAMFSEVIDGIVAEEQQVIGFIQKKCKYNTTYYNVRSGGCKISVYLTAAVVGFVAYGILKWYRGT
UniProt Q07812: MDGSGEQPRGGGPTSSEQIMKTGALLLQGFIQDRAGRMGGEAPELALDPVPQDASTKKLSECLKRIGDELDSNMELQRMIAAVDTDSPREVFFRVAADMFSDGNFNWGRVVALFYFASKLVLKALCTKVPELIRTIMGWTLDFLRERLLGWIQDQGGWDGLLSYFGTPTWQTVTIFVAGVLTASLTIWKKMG
UniProt Q9Y297: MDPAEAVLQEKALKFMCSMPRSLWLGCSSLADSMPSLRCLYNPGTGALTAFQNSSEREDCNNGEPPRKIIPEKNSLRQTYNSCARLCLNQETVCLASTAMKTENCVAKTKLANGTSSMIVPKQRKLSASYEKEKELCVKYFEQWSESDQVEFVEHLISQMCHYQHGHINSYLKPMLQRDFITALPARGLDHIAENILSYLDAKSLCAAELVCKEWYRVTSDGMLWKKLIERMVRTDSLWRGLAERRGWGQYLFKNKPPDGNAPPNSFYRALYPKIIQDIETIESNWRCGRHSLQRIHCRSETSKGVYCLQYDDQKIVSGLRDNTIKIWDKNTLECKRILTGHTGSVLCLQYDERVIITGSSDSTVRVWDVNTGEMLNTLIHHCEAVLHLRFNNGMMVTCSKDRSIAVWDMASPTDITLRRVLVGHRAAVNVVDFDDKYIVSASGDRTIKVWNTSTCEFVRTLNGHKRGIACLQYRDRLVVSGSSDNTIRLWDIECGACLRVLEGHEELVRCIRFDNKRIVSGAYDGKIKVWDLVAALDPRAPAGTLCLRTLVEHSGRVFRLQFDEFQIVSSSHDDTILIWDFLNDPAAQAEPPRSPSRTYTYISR

Molecular target: FLAG-tagged myxoma virus protein M11 (myxoma virus) (UniProt Q85295)
Test: co-IP

HA-tagged human Bax (from UniProt Q07812 1-192)
binding: binds

Myc-tagged β-TrCP (from UniProt Q9Y297 1-605)
binding: no binding

B1: HA-tagged human Bak (protein, UniProt Q16611 1-211)
chain: MASGQGPGPPRQECGEPALPSASEEQVAQDTEEVFRSYVFYRHQQEQEAEGVAAPADPEMVTLPLQPSSTMGQVGRQLAIIGDDINRRYDSEFQTMLQHLQPTAENAYEYFTKIATSLFESGINWGRVVALLGFGYRLALHVYQHGLTGFLGQVTRFVVDFMLHHCIARWIAQRGGWVAALNLGNGPILNVLVVLGVVLLGQFVVRRFFKS
binding: binds
